Test results as given in patent publication US20180305421A1 (SHIRE HUMAN GENETIC THERAPIES, published 2018).
Results are given in words; binding and its absence hold for the method and conditions named. Some entries that bind do so weakly or less than the wild type.

Molecular target: T1, activin (UniProt P08476 311-426)
T1 sequence (looked up): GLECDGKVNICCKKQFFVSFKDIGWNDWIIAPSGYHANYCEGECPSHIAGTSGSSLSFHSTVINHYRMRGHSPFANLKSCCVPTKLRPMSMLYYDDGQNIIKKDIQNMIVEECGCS
Assay: Biacore SPR

binding: binds
B1: FS315-GAG3-mFc (Fc fusion)
chain: GNCWLRQAKNGRCQVLYKTELSKEECCSTGRLSTSWTEEDVNDNTLFKWMIFNGGAPNCIPCKETCENVDCGPGKKCRMNKKNKPRCVCAPDCSNITWKGPVCGLDGKTYRNECALLKARCKEQPELEVQYQGRCKKTCRDVFCPGSSTCVVDQTNNAYCVTCNRICPEPASSEQYLCGNDGVTYSSACHLRKATCLLGRSIGLAYEGKCIKAKSCEDIQCTGGKKCLWDFKVGRGRCSLCDELCPDSKSDEPVCASDNATYASECAMKEAACSSGVLLEVKHSGSCNSISEDTEEEEEDEDQDYSFPISSILEWGAPGGGGGAAAAAGGGGGGAPGGGGGAAAAAGGGGGGAPGGGGGAAAAAGGGGGGAPGCKPCICTVPEVSSVFIFPPKPKDVLTITLTPKVTCVVVDISKDDPEVQFSWFVDDVEVHTAQTQPREEQFNSTFRSVSELPIMHQDWLNGKEFKCRVNSAAFPAPIEKTISKTKGRPKAPQVYTIPPPKEQMAKDKVSLTCMITDFFPEDITVEWQWNGQPAENYKNTQPIMDTDGSYFVYSKLNVQKSNWEAGNTFTCSVLHEGLHNHHTEKSLSHSPGK
notes: also called FS315-mFc; FS315-Fc
